PubChem BioAssay AID2685 (National Center for Advancing Translational Sciences (NCATS), 2010)
Among all 320,000 compounds or so, about 2,100 (0.66%) were called active. This list was built around the results that the source calls inconclusive (neither active nor inactive); the mix of calls is not that of the screen. Calls come from the whole dose curve; as a rule, active = well fitted inhibition curve with a large enough effect in the signal ratio, with a control signal flat (not every such curve was filed as active); inconclusive = small, poorly fitted or top-dose-only effect, or effect the other way, or a change in a side signal; inactive = flat fitted curve, though single readings scatter; the % refers to the signal ratio. Potencies beside an inconclusive call are fits to weak or partial responses and may not hold up.
% is set by controls: 0 for no effect and ±100 for the full control effect; potency is the fitted concentration of half-maximal effect.

Test: qHTS Assay for Lipid Storage Modulators in Drosophila S3 Cells
Conditions: BODIPY lipid droplet fluorescence, 18-24 h, cells fed with added oleic acid; lipid storage change, negative = inhibition: at 46.1 µM (top of the series) unless noted
In short: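 Laser-scanning cytometry quantifies lipid droplet accumulation (500–530 nm total intensity; droplet/cell object ratio) in oleic acid-fed (400 uM added) Drosophila S3 cells treated with a concentration series. 20 uM Triacsin C defined 100% inhibition.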
For `Cc1ccccc1C(=O)NCC(=O)OCCOc1ccc(C(C)C)c(C)c1`, the lipid storage change, negative = inhibition was inconclusive: 30%.
For `O=C(O)C1CCCCC1C(=O)Nc1ccc2c(c1)CCC2` (centres undefined), the lipid storage change, negative = inhibition was inconclusive: -4.21%.
For `C=CCn1c(SCC(=O)Nc2ccccc2F)nc2ccccc2c1=O`, the lipid storage change, negative = inhibition was inconclusive: 0.358%.
For `CC(Oc1ccc2ccc(=O)oc2c1)C(=O)NC(Cc1c[nH]c2ccc(O)cc12)C(=O)O` (centres undefined), the lipid storage change, negative = inhibition was inconclusive: 11.5%.
In the case of `Cc1ccc(C(=O)NCC(=O)N2CCN(S(=O)(=O)c3cccs3)CC2)s1`, the lipid storage change, negative = inhibition is reported as inconclusive: 46.2%.
With `COc1ccc(CCNC(=O)Cn2nc(C)c3c(C)n(-c4ccc(C)cc4)nc3c2=O)c(OC)c1` the lipid storage change, negative = inhibition was inconclusive: 14%.
For `CC(=O)c1cc2c(cc1NC(=O)CCc1ccccc1)OCO2`, the Potency was inconclusive: 0.517 µM [activator, partial curve, poor fit].
In the case of `CCn1c(=O)cc(SCC(=O)N2CCN(c3ccccc3OC)CC2)c2ccccc21`, the lipid storage change, negative = inhibition is reported as inconclusive: -25.7%.
In the case of `N#Cc1nc(COc2ccc(F)cc2)oc1NCCN1CCOCC1`, the lipid storage change, negative = inhibition is reported as inconclusive: -15.3%.
In the case of `CCOC(=O)C1CCN(C(=O)C2CCN(S(=O)(=O)c3ccc4c(c3)CC(C)N4C(C)=O)CC2)CC1` (centres undefined), the Potency is reported as inconclusive: 0.0046 µM [activator, full curve, poor fit].
In the case of `COc1cccc(CNc2nc3ccc(C)cc3n3cnnc23)c1`, the Potency is reported as inconclusive: 0.517 µM [activator, full curve, poor fit].
With `Cc1cc(OCC(=O)NCC(C)C)cc(C)c1Br` the lipid storage change, negative = inhibition was inconclusive: -3.94%.
In the case of `COc1ccc(C(=O)COC(=O)CCC(=O)c2cccs2)cc1`, the lipid storage change, negative = inhibition is reported as inconclusive: -11.7%.
For `CN(Cc1ccccc1)C(=O)c1ncn(Cc2ccccc2)c1C(=O)N(C)Cc1ccccc1`, the Potency was inconclusive: 0.103 µM [falling, full curve, poor fit].
In the case of `CCOCCn1c2ccccc2c2nc3ccccc3nc21`, the lipid storage change, negative = inhibition is reported as inconclusive: -12.3%.
In the case of `CCC(c1nnnn1Cc1ccco1)N(Cc1cc2cc(OC)ccc2[nH]c1=O)C1CCCCC1` (centres undefined), the Potency is reported as inconclusive: 7.31 µM [activator, partial curve].
For `COc1ccc(C(=O)Nc2ccc(NC(=O)c3cccc(F)c3)cn2)cc1`, the lipid storage change, negative = inhibition was inconclusive: 12.2%.
In the case of `CN(C)c1nc(SCC(=O)Nc2ccc(Cl)c(Cl)c2)nc(N2CCOCC2)n1`, the Potency is reported as inconclusive: 11.6 µM [falling, single point].
With `Cc1cccc(N2CCN(C(=O)CSCc3c(C)noc3C)CC2)c1C` the lipid storage change, negative = inhibition was inconclusive: -50.4%.
With `COc1ccc(CCN(/C=C2\Sc3ccccc3C2=O)C(C)=O)cc1OC` the lipid storage change, negative = inhibition was “inactive”.
In the case of `Cc1ccc(C(=O)Nc2ccc(C(=O)N3CCCCC3)cc2)o1`, the lipid storage change, negative = inhibition is reported as “inactive”.
In the case of `CSc1ccc(Cn2nnc(C(=O)NCCc3ccc(Cl)cc3)c2N)cc1`, the lipid storage change, negative = inhibition is reported as inconclusive: 11.1%.
In the case of `Nc1cc(Cl)ccc1C(=O)OCC(=O)N1CCCC1`, the Potency is reported as inconclusive: 29.1 µM [falling, single point].
In the case of `NC(=O)c1ccc(Nc2ccc3c(c2)CCC3)c([N+](=O)[O-])c1`, the lipid storage change, negative = inhibition is reported as inconclusive: -20.3%.
For `Cc1cccc(CNC(=O)C2CCC(=O)N(Cc3ccccc3F)C2)n1` (centres undefined), the lipid storage change, negative = inhibition was inconclusive: 258%.
With `COc1ccc(C(CNC(=O)Cn2[nH]c(=O)c3ccccc3c2=O)N2CCCC2)cc1` (centres undefined) the lipid storage change, negative = inhibition was inconclusive: 8.81%.
With `C=CCNC(=S)NCCO` the lipid storage change, negative = inhibition was inconclusive: -21.7%.
With `COc1ccc(C(=O)Nc2cc(OC)nc(OC)n2)cc1` the lipid storage change, negative = inhibition was “inactive”.
In the case of `O=C(NCc1ccccc1)/C(=C/c1cccc([N+](=O)[O-])c1)NC(=O)c1ccco1`, the lipid storage change, negative = inhibition is reported as inconclusive: -68.6%.
For `COCCCN1C(=O)c2ccc(C(=O)OCC(=O)NCc3cccc(OC)c3)cc2C1=O`, the lipid storage change, negative = inhibition was inconclusive: -56.7%.
In the case of `O=C(N/N=C/c1cn(-c2ccccc2)nc1-c1cc2ccccc2o1)c1c[nH]c2ccccc12`, the lipid storage change, negative = inhibition is reported as inconclusive: 12.1%.
With `Cc1ccc(-c2cc(C(F)F)nc(N3CCOCC3)n2)cc1` the lipid storage change, negative = inhibition was inconclusive: -25.3% [cytotoxic].
With `COc1cc(NC(=O)c2noc3c2CCCC3)c(OC)cc1Cl` the lipid storage change, negative = inhibition was inconclusive: 4.23%.
In the case of `O=C(Oc1cccc(-n2cnnn2)c1)C1CCCCC1`, the Potency is reported as inconclusive: 0.731 µM [falling, full curve].
With `CCOC(=O)NC(=O)/C(C#N)=N\Nc1cccc(Cl)c1` the Potency was inconclusive: 51.7 µM [falling, partial curve, poor fit].
In the case of `FC(F)(F)c1nc(-c2ccccc2)ncc1-c1nnnn1-c1ccccc1`, the lipid storage change, negative = inhibition is reported as inconclusive: 48.7%.
In the case of `CC(=O)c1cn(-c2ccc(Cl)cc2)c(=O)[nH]c1=O`, the lipid storage change, negative = inhibition is reported as inconclusive: -43.3%.
With `O=C(Nc1cccc(Cl)c1N1CCCCC1)c1ccc2c(c1)OCCO2` the lipid storage change, negative = inhibition was inconclusive: -19.4%.
In the case of `Cc1ccc(/C=N/NC(=O)c2nnn(-c3nonc3N)c2CSc2ccc(Cl)cc2)o1`, the Potency is reported as inconclusive: 16.4 µM [activator, single point].
With `CC1(C(=O)NC2CCCCC2)CCC(=O)N1Cc1cccs1` (centres undefined) the lipid storage change, negative = inhibition was inconclusive: 0.329%.
With `O=C(Nc1cccc(F)c1)Nc1ccnn1C1CCN(C(=O)CCN2CCCO2)CC1` the Potency was inconclusive: 6.51 µM [activator, partial curve].
With `CCOC(=O)N1CCN(C(=O)c2ccc(CS(=O)Cc3ccc(C)cc3)o2)CC1` (centres undefined) the Potency was inconclusive: 14.6 µM [falling, partial curve].
With `Cc1ccc(NC(=O)c2c(Cl)nc3ccccn23)cc1` the Potency was inconclusive: 0.116 µM [activator, full curve].
For `Cc1nc2ccc(N)cc2c(=O)n1Cc1ccc(Cl)cc1`, the Potency was inconclusive: 6.51 µM [activator, partial curve].
In the case of `COc1cccc2cc(C(=O)NCc3ccccc3Cl)c(=O)oc12`, the lipid storage change, negative = inhibition is reported as inconclusive: 17.5%.
In the case of `COC(=O)C1CCN(S(=O)(=O)c2ccc(Br)s2)CC1`, the lipid storage change, negative = inhibition is reported as inconclusive: 10.9%.
For `Cc1cccc(NC(=S)N2CCC(N(C)CC3CCCO3)CC2)c1C` (centres undefined), the lipid storage change, negative = inhibition was inconclusive: 15%.
With `Cc1cc(C)cc(NC(=O)C/C(N)=N/O)c1` the Potency was inconclusive: 2.06 µM [activator, partial curve].
With `Cc1ccc(S(=O)(=O)N2CCN(CC(=O)Nc3ccc(N4CCOCC4)cc3)CC2)cc1C` the lipid storage change, negative = inhibition was inconclusive: -4.88%.
